Experimental data from patent EP2873675A1, “Peptide-based peroxidase inhibitors and methods of using same” (The Medical College of Wisconsin, Inc., priority 2013, dated 2015).
Residues, ends and D or L forms follow the SMILES beside them.

Tested on: MPO
Test: HPLC analysis of MPO-mediated oxidation products
Type: biochemical
Conditions: MPO/H2O2, also with NO2- or Cl-; HPLC 280 nm and fluorescence

## CC(=O)N[C@@H](CCCCN)C(=O)N[C@@H](Cc1ccc(O)cc1)C(=O)N[C@@H](CS)C(N)=O [KYC, N-acetyl Lysyltyrosylcysteine amide] (Ac-Lys-Tyr-Cys-NH2)
  major product of MPO/H2O2-mediated oxidation: KYC disulfide

## N-acetyl Lysylphenylalanylcysteine amid [KFC]
  major product of MPO/H2O2-mediated oxidation: did not yield MPO-dependent oxidation products

## N-acetyl Lysyltyrosylcyeteine amide [KYS]
  major product of MPO/H2O2-mediated oxidation: DiTyr
